According to the M2OR odorant receptor database:
Residue numbers refer to the chain shown, from its start. The entries are a selection whose mix differs from that of the whole data set. The calls were merged from several studies; some rest on single wells. The list shows a part of the results.

Chains of the proteins cited; added tags and fusions are not shown. Lines headed by an entry give the natural chain unless they say otherwise; changes in a name come on top. Chains listed by the source or under a name are the forms on record and can include a tag or linker.
UniProt Q6IFN5: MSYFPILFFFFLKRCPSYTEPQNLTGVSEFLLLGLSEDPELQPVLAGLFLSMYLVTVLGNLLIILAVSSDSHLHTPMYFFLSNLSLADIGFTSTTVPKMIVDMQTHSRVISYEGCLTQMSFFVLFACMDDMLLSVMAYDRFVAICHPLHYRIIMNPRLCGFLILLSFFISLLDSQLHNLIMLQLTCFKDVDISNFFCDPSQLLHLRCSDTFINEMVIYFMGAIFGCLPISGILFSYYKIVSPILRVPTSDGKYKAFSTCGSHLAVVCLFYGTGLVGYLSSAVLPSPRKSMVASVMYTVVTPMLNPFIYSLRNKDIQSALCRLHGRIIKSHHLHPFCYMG
OR8B3, as listed by the source: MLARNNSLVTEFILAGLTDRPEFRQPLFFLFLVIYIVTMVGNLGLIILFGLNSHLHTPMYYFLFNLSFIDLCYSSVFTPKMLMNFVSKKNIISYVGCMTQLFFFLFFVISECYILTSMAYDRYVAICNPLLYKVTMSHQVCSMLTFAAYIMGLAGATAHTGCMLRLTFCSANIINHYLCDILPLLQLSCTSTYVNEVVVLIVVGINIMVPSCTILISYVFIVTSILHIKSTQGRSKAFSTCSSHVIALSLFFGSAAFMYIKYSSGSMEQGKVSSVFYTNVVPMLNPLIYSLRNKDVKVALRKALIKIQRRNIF
OR8B4, as listed by the source: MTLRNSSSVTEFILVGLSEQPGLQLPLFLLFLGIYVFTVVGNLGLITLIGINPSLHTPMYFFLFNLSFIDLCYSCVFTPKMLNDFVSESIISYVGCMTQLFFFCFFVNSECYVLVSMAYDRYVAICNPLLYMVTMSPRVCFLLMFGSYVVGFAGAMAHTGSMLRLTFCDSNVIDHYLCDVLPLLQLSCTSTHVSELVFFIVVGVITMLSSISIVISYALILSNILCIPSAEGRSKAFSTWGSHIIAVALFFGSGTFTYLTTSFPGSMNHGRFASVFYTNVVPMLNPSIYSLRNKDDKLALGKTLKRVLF

How the values were obtained:
Settings in all cases: stereoisomer not certain
OR7D4 = system: T1, OR7D4
T1 sequence (whole entry): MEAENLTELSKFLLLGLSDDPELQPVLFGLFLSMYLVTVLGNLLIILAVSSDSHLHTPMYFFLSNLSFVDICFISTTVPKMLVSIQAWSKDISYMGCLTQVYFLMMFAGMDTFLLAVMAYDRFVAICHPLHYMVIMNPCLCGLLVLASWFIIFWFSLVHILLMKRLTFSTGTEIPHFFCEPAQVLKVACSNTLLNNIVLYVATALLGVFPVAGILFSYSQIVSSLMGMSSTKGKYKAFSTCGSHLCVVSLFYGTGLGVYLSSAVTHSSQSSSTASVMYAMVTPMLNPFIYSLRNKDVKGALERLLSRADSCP
Procedure, shortened: (§1)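 Each receptor–molecule pair is labelled responsive or non-responsive (inactive) according to whether the original authors judged the measured signal statistically different from baseline. The data were taken from the main text and supplementary material of published papers and checked for typos and inconsistencies. Assay methods differed by source, with transient luciferase assays in mammalian cell lines being common.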

OR7G1 (Homo sapiens) = biological target: T2, OR7G1 (Homo sapiens) (UniProt Q8NGA0)
T2 sequence (whole entry): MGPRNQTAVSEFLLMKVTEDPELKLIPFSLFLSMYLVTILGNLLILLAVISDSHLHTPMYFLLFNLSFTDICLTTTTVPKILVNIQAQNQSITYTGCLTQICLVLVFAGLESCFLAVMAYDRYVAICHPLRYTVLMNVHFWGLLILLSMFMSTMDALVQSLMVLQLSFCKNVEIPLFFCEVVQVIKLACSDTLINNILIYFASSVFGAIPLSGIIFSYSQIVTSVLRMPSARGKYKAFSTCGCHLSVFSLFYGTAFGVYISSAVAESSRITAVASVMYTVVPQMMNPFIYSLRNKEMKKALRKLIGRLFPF
Procedure, shortened: as §1

OR7G2 (Homo sapiens) = biological target: T3, OR7G2 (Homo sapiens) (UniProt Q8NG99)
T3 sequence (whole entry): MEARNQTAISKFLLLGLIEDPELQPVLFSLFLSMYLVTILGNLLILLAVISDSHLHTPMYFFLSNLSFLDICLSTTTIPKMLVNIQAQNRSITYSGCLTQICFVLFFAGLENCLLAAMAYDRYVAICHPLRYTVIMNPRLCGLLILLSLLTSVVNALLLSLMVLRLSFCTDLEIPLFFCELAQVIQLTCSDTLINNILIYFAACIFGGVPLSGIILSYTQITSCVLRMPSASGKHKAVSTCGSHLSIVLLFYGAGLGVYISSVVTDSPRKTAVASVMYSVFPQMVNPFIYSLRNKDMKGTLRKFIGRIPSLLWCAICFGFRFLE
Procedure, shortened: as §1

OR7G2 = system: T4, OR7G2
T4 sequence (whole entry): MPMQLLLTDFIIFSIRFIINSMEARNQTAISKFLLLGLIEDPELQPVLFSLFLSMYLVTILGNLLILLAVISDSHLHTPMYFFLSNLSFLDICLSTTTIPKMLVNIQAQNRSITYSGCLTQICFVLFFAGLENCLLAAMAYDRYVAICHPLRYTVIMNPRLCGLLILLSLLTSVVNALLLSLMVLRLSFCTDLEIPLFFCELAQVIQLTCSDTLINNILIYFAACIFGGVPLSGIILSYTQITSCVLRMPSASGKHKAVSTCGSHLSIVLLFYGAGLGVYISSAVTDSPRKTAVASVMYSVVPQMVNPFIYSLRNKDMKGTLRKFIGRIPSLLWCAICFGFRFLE
Procedure, shortened: as §1

OR7G3 (Homo sapiens) = biological target: T5, OR7G3 (Homo sapiens) (UniProt Q8NG95)
T5 sequence (whole entry): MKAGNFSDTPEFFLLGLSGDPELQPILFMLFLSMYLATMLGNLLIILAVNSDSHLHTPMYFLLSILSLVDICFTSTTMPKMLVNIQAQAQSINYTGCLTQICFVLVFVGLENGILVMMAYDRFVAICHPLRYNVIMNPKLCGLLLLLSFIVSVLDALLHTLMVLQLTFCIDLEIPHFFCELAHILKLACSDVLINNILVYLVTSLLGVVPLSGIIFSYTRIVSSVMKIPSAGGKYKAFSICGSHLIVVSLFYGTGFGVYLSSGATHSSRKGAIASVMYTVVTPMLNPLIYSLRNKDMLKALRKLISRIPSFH
Procedure, shortened: as §1

OR8A1 = system: T6, OR8A1
T6 sequence (whole entry): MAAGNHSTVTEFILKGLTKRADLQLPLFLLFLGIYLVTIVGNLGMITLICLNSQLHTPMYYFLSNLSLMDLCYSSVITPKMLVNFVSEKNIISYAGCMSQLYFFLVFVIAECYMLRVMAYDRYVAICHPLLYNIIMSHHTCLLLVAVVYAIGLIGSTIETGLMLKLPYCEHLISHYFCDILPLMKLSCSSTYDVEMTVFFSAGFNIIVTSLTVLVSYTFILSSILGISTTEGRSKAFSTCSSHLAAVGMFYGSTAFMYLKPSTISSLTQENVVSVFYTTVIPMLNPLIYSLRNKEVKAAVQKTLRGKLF
Procedure, shortened: as §1

OR8B12 (Homo sapiens) = biological target: T7, OR8B12 (Homo sapiens) (UniProt Q8NGG6)
T7 sequence (whole entry): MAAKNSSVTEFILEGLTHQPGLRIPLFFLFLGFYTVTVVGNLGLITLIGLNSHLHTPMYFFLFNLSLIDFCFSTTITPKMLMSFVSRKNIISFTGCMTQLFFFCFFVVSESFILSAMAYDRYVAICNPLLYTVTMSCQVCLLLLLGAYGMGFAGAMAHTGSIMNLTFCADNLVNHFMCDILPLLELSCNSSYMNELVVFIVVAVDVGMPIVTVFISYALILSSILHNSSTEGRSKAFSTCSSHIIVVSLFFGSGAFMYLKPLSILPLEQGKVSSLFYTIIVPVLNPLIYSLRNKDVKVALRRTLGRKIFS
Procedure, shortened: as §1

OR8B2 (Homo sapiens) = biological target: T8, OR8B2 (Homo sapiens) (UniProt Q96RD0)
T8 sequence (whole entry): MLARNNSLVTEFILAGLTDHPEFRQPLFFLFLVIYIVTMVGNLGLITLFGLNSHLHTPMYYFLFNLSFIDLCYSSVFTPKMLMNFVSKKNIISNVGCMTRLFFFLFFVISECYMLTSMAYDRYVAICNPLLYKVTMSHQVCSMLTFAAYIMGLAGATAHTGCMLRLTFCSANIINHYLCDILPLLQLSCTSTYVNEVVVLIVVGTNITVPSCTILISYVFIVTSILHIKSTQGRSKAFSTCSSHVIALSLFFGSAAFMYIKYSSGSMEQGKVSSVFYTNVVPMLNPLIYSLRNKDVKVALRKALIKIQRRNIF
Procedure, shortened: as §1

OR8B3 = system: T9, OR8B3
T9 sequence (whole entry): T8 sequence (whole entry) with H20R, T47I, N94Y, R100Q, M114I, T205I, T208M
Procedure, shortened: as §1

OR8B4 [1] = system: T10, OR8B4
T10 sequence (whole entry): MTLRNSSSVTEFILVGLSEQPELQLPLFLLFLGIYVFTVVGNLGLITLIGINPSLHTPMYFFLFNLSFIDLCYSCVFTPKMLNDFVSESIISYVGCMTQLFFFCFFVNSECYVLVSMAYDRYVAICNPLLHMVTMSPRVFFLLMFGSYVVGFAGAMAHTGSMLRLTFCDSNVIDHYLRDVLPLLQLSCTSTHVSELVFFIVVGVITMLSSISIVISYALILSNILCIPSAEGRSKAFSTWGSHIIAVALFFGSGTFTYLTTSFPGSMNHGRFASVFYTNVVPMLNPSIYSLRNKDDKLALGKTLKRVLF
Procedure, shortened: as §1

OR8B4 [2] = system: T11, OR8B4; remark: listed apart in the source
T11 sequence (whole entry): T10 sequence (whole entry) with E22G, H131Y, F140C, R178C
Procedure, shortened: as §1

OR8B8 (Homo sapiens) = biological target: T12, OR8B8 (Homo sapiens) (UniProt Q15620)
T12 sequence (whole entry): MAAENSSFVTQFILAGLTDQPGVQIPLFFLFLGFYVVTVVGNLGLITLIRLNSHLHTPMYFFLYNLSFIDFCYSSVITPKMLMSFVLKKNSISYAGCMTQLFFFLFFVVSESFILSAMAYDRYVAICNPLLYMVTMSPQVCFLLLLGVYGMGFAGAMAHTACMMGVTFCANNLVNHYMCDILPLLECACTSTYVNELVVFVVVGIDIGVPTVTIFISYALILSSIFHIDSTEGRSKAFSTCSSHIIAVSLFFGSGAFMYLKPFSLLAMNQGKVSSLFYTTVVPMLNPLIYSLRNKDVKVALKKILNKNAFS
Procedure, shortened: as §1

OR8B8 = system: T13, OR8B8
T13 sequence (whole entry): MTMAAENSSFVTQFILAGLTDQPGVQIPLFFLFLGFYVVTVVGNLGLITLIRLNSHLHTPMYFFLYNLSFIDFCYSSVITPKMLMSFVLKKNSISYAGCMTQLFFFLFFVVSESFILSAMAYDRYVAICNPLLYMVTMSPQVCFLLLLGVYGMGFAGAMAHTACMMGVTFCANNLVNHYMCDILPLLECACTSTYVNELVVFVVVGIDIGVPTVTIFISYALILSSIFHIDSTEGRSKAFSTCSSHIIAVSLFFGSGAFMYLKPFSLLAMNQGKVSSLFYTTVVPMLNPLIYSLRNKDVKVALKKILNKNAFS
Procedure, shortened: as §1

OR7E24 (Homo sapiens) = OR7E24 (Homo sapiens) (UniProt Q6IFN5)
Procedure, shortened: as §1

OR8A1 (Homo sapiens) = OR8A1 (Homo sapiens) (UniProt Q8NGG7)
Procedure, shortened: as §1

OR8B4 (Homo sapiens) = OR8B4 (Homo sapiens) (UniProt Q96RC9)
Procedure, shortened: as §1

Measured: odorant receptor agonist call

COc1ccccc1O
not listed: OR7E24 (Homo sapiens) | OR8A1 (Homo sapiens) | OR8B4 (Homo sapiens)
inactive: all other assays above

CC(C)C(=O)O
active: OR8B12 (Homo sapiens)
not listed: OR7E24 (Homo sapiens) | OR8A1 (Homo sapiens) | OR8B4 (Homo sapiens)
inactive: all other assays above

CCCCO
not listed: OR7E24 (Homo sapiens) | OR8A1 (Homo sapiens) | OR8B4 (Homo sapiens)
inactive: all other assays above

CC(C)C=O
not listed: OR7E24 (Homo sapiens) | OR8A1 (Homo sapiens) | OR8B4 (Homo sapiens)
inactive: all other assays above

CC=Cc1ccc(O)c(OC)c1
active: OR8A1 | OR8B12 (Homo sapiens) | OR8B2 (Homo sapiens) | OR8B3
not listed: OR7E24 (Homo sapiens) | OR8A1 (Homo sapiens) | OR8B4 (Homo sapiens)
inactive: all other assays above

CCCCCCC=O
inactive: OR7D4

CC(=O)OC1CC2CCC1(C)C2(C)C (stereo unspecified)
not listed: OR7E24 (Homo sapiens) | OR8A1 (Homo sapiens) | OR8B4 (Homo sapiens)
inactive: all other assays above

CC1CCC(C(C)C)C(O)C1 (stereo unspecified)
active: OR7G2 (Homo sapiens) | OR8A1 | OR8B8 (Homo sapiens)
not listed: OR7E24 (Homo sapiens) | OR8A1 (Homo sapiens) | OR8B4 (Homo sapiens)
inactive: all other assays above

CC12C=CCC1C1CCC3CC(=O)CCC3(C)C1CC2 (stereo unspecified)
active: OR8B4 [2] | OR8B8
inactive: all other assays above

CCCCCCCCOC(C)=O
not listed: OR7E24 (Homo sapiens) | OR8A1 (Homo sapiens) | OR8B4 (Homo sapiens)
inactive: all other assays above

CC(C)=CCCC(C)=CC=O
not listed: OR7E24 (Homo sapiens) | OR8A1 (Homo sapiens) | OR8B4 (Homo sapiens)
inactive: all other assays above

CC12CCC(CC1)C(C)(C)O2
not listed: OR7E24 (Homo sapiens) | OR8A1 (Homo sapiens) | OR8B4 (Homo sapiens)
inactive: all other assays above

CCC=CCCO
not listed: OR7E24 (Homo sapiens) | OR8A1 (Homo sapiens) | OR8B4 (Homo sapiens)
inactive: all other assays above

C=CCc1ccc(O)c(OC)c1
inactive: OR7D4
